Results as given in patent US8470891B2, “Biodegradable block polymers for drug delivery, and methods related thereto” (International Business Machines Corporation, priority 2009, dated 2013).
In brackets after ≈: the same amount, converted by molar mass.

Tested on: HepG2 cells
Experiment: Cytotoxicity study using HepG2 cells
Format: cell-based
Conditions: free DOX

COc1cccc2c1C(=O)c1c(O)c3c(c(O)c1C2=O)C[C@@](O)(C(=O)CO)C[C@@H]3O[C@H]1C[C@H](N)[C@H](O)[C@H](C)O1 [DOX, doxorubicin]
IC50 value: 1.14 µg/mL (≈ 2.1 µM)
